Results on 3 molecules are retold here after PMC11005689.

Sequences of proteins named here, by UniProt entry; tags and fusion partners are left off.
UniProt Q7L5N1: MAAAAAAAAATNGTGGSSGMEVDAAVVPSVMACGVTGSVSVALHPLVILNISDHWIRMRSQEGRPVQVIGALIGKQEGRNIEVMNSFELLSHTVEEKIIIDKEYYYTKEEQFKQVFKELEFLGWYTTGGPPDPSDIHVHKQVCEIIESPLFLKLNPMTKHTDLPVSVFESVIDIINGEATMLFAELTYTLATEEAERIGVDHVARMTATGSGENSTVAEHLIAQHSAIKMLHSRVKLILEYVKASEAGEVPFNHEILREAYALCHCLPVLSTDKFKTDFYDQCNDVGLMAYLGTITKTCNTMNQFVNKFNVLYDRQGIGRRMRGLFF
UniProt O43791: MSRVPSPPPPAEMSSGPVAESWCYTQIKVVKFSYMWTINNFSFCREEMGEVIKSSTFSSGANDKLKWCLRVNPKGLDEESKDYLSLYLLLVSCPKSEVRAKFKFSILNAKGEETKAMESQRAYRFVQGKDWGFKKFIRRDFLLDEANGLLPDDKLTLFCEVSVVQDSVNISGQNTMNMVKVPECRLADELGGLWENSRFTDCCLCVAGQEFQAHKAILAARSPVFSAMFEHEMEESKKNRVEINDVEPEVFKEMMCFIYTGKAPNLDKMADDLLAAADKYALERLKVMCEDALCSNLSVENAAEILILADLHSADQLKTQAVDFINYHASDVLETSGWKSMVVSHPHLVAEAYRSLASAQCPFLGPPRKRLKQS

Results are given in words; binding and its absence hold for the method and conditions named. In cells and extracts the contact can be indirect. Some results given as binding are weak or reduced against the parent protein; the word gives no strength.

Assay [1] addresses CSN6 (293T cells, Figure 4B) (UniProt Q7L5N1). Nature of the assay: co-IP; immunoprecipitates from 293T cells with MG132 treatment for 6 h, immunoblot (Figure 4B). For orientation: A western blot detects proteins with antibodies after separation by electrophoresis.
Substrate in assay [2]: SPOP (in vitro translated) (UniProt O43791)
Nature of the assay: co-IP; in vitro: constructs transcribed and translated with the TnT kit, co-IP with indicated antibodies (Figure 5C right).

Substrate in assay [3]: SPOP (transfected construct) (UniProt O43791)
The assay is described as follows: co-IP; 293T cells transfected with indicated constructs and treated with MG132 for 6 h; cell lysate (Figure 5C left).

Substrate in assay [4]: SPOP (transfected construct) (UniProt O43791)
Nature of the assay: co-IP; IP assay of HMGCS1‐WT or HMGCS1‐ΔSBC with SPOP (Figure 5G); cells not stated in the legend.

B1: HMGCS1 (293T cells, Figure 4B) (protein, UniProt Q01581 1-520)
chain: MPGSLPLNAEACWPKDVGIVALEIYFPSQYVDQAELEKYDGVDAGKYTIGLGQAKMGFCTDREDINSLCMTVVQNLMERNNLSYDCIGRLEVGTETIIDKSKSVKTNLMQLFEESGNTDIEGIDTTNACYGGTAAVFNAVNWIESSSWDGRYALVVAGDIAVYATGNARPTGGVGAVALLIGPNAPLIFERGLRGTHMQHAYDFYKPDMLSEYPIVDGKLSIQCYLSALDRCYSVYCKKIHAQWQKEGNDKDFTLNDFGFMIFHSPYCKLVQKSLARMLLNDFLNDQNRDKNSIYSGLEAFGDVKLEDTYFDRDVEKAFMKASSELFSQKTKASLLVSNQNGNMYTSSVYGSLASVLAQYSPQQLAGKRIGVFSYGSGLAATLYSLKVTQDATPGSALDKITASLCDLKSRLDSRTGVAPDVFAENMKLREDTHHLVNYIPQGSIDSLFEGTWYLVRVDEKHRRTYARRPTPNDDTLDEGVGLVHSNIATEHIPSPAKKVPRLPATAAEPEAAVISNGEH
Take B1: the binding entry in assay [1] is “binds”.

B2: HMGCS1 (in vitro translated) (protein, UniProt Q01581 1-520)
chain: B1 chain
On to B2, for which, in assay [2], the binding result was “binds”.

B3: HMGCS1‐WT (transfected construct) (protein, UniProt Q01581 1-520)
chain: B1 chain
As for B3, the binding entry in assay [3] and in assay [4] was “binds” each time.
